These are yes or no findings as the source states them, for the method shown. Where a sequence is shown, tags or fusion partners need not be part of it.

This test addresses T1, StSN2 full length fused to pGBKT7 (SN2-BD) (potato (Solanum tuberosum, cultivar Chuanyu 10)) (UniProt Q93X17).
T1 sequence: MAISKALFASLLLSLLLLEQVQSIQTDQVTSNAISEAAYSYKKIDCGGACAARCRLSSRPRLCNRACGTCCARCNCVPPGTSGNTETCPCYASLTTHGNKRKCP
In words: two-hybrid; yeast two-hybrid of SN2 with DIM/DWF1, told only in the discussion; no figure and no construct named.

As to DIM/DWF1 in the yeast two-hybrid assay, the binding result is listed as “no binding”.
